The target of test [1] is T1, soluble CD23 (sCD23) purified from the supernatant of human RPMI 8866 cells (human) (UniProt P06734).
T1 sequence (looked up): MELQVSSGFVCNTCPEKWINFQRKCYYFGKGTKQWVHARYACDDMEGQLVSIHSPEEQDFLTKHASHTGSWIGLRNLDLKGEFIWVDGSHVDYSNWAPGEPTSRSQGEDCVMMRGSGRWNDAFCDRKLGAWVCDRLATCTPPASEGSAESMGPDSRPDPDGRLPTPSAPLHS
Nature of the test: ELISA on sCD23 captured by BG-6. Background: ELISA stands for enzyme-linked immunosorbent assay.

Test [2] addresses T2, human CD23, the low affinity receptor for IgE (FceRII/CD23) (human) (UniProt P06734).
T2 sequence (looked up): T1 sequence (looked up)
Nature of the test: competition binding assay (FIG. 2).

These are yes or no findings as the source states them, for the method shown. Some results given as binding are weak or reduced against the parent protein; the word gives no strength.

B1: primate monoclonal anti-human CD23 antibody 6G5 (antibody, V domains shown)
VH: QLQLQESGPGVVKPSETLSLTCAVSGGSVSSSNWWTWIRQPPGKGLEWIGRISGSGGATNYNPSLKSRVIISQDTSKNQFSLNLNSVTAADTAVYYCARDWAQIAGTTLGFWGQGVLVTVSS
VL: QSAPTQPPSVSGSPGQSVTISCTGTSDDVGGYNYVSWYQHHPGKAPKLMIYDVAKRASGVSDRFSGSKSGNTASLTISGLQAEDEADYYCCSYTTSSTLLFGRGTRLTVL
For the molecule B1, the binding entry in test [1] and in test [2] was “binds” each time.

The record behind these values is patent publication US7223392.
